Experimental data taken from patent US20080090257A1.
No constants are given. Whether binding was seen depends on the method and setting. In cells and extracts the contact can be indirect. For some of these results: Binding can be weak; no strength is given. Sequences can lack the tags named with a protein.

B1: GST-CCPG fusion protein (protein, not shown: a dimerising Fc or GST)
chain: MGVRGLQGFVGSTCPHICTIVNIHELAERHRNKYPGCTPTIVVDAMCCLRYWYTAESWVCGGQWREYYCALRNFVAAFTSAGIKLIFFFDGMVEPGKRDEWVKRRLKNNREISKIFHYIKSKRDQPGRNMFFIPSGLAIFTRFALKTLGQETFCSLQEADYEVASYGLQHNCLGILGEDTDYLIYDTCPYFSIGDLCLESLQTIMLCREKLCESLGLRVADLPLLACLLGNDITPESMFESFRYKCLSSYASVKENAGKKGNIILAVSDYISKVLHLYQGEKKIEEMLPLGPNKALFYKGVTSYLLPGQKSPWLVQKPKGMITDKQQMVSLNPESKQEVPMCIDPEFKQEVPVCTNPESMQEVPMCMDPEPNQEASMCTDPESKQEVPMCTDSESKPEVSQYTNPESKQKLPSGIDTEFNLEALMCTHPEFKQEDVMDMEPEIKQVTMVSESEILKVARMHHVHSESYLVYNILSSGEIECSNTLEDELDQALPSQAFIYRPVRQRVYALLLGDWKDGASTGPVVKEWFVYPGNSLKHPDLVRPLQMTVQGGTPSLEVLWLSQEPAVQAQRLDTLLACFNLSSSREELQAVESPLRALCCLLIYLFVQVDTLSLEDLHAFIAQALCLQGKSTSQLMHLQLDYINSRAVQLGSLLVRGLTTLVLVNSACGFPWTTSEFMPWNVFDGKLFHQKYLQSEKGYAVEVLLEQNRSWLTKFHNLKAVVCKACSKENRRIVGRTHWDSPYTGRQGRQGYSSYRTDSTHGHSGQSWRNQGSGGRQHERNHWRRY
B2: GFP-tagged CCPG (GFP-CCPG) (protein, not shown: large carriers)
chain: MGVRGLQGFVGSTCPHICTIVNIHELAERHRNKYPGCTPTIVVDAMCCLRYWYTAESWVCGGQWREYYCALRNFVAAFTSAGIKLIFFFDGMVEPGKRDEWVKRRLKNNREISKIFHYIKSKRDQPGRNMFFIPSGLAIFTRFALKTLGQETFCSLQEADYEVASYGLQHNCLGILGEDTDYLIYDTCPYFSIGDLCLESLQTIMLCREKLCESLGLRVADLPLLACLLGNDITPESMFESFRYKCLSSYASVKENAGKKGNIILAVSDYISKVLHLYQGEKKIEEMLPLGPNKALFYKGVTSYLLPGQKSPWLVQKPKGMITDKQQMVSLNPESKQEVPMCIDPEFKQEVPVCTNPESMQEVPMCMDPEPNQEASMCTDPESKQEVPMCTDSESKPEVSQYTNPESKQKLPSGIDTEFNLEALMCTHPEFKQEDVMDMEPEIKQVTMVSESEILKVARMHHVHSESYLVYNILSSGEIECSNTLEDELDQALPSQAFIYRPVRQRVYALLLGDWKDGASTGPVVKEWFVYPGNSLKHPDLVRPLQMTVQGGTPSLEVLWLSQEPAVQAQRLDTLLACFNLSSSREELQAVESPLRALCCLLIYLFVQVDTLSLEDLHAFIAQALCLQGKSTSQLMHLQLDYINSRAVQLGSLLVRGLTTLVLVNSACGFPWTTSEFMPWNVFDGKLFHQKYLQSEKGYAVEVLLEQNRSWLTKFHNLKAVVCKACSKENRRIVGRTHWDSPYTGRQGRQGYSSYRTDSTHGHSGQSWRNQGSGGRQHERNHWRRY

Legend:
myc-tagged RXRα [1] = assay: GST pull-down from COS7 lysate
[2] = molecular target: myc-tagged PPARγ (full-length); assay: GST pull-down from COS7 lysate
myc-tagged ERα [3] = assay: GST pull-down from COS7 lysate
[4] = molecular target: myc-tagged PPARγ with deletion of amino acids 1-281; assay: GST pull-down of myc-tagged PPARγ truncates from COS7 lysate, anti-myc western blot
[5] = molecular target: myc-tagged PPARγ with deletion of amino acids 1-205; assay: GST pull-down of myc-tagged PPARγ constructs, anti-myc western blot
[6] = molecular target: myc-tagged PPARγ (full-length); assay: as above
[7] = molecular target: myc-tagged PPARγ (full-length); assay: GST pull-down (FIG. 4A)
myc-tagged RXRα [8] = assay: GST pull-down (summary of the examples)
[9] = molecular target: myc-tagged PPARγ (full-length); assay: GST pull-down (summary of the examples)
myc-tagged ERα [10] = assay: GST pull-down (summary of the examples)
myc-tagged RXRα [11] = assay: GST pull-down from COS7 lysate with or without ligand, anti-myc western blot
[12] = molecular target: myc-tagged PPARγ (full-length); assay: as above
myc-tagged ERα [13] = assay: as above
myc-tagged TRβ = assay: GST pull-down from COS7 lysate, with or without ligand (T3 1 µM), anti-myc western blot
Flag-tagged PPARγ [14] = assay: co-IP with anti-GFP antibody, anti-Flag western blot (FIG. 4B)
Flag-tagged PPARγ [15] = assay: co-IP with anti-GFP antibody from co-transfected cells with or without Tro, western blot

| Binder | binding (myc-tagged RXRα [1]) | binding [2] | binding (myc-tagged ERα [3]) | binding [4] | binding [5] | binding [6] | binding [7] | binding (myc-tagged RXRα [8]) | binding [9] | binding (myc-tagged ERα [10]) | binding (myc-tagged RXRα [11]) | binding [12] | binding (myc-tagged ERα [13]) | binding (myc-tagged TRβ) | binding (Flag-tagged PPARγ [14]) | binding (Flag-tagged PPARγ [15]) |
| --- | --- | --- | --- | --- | --- | --- | --- | --- | --- | --- | --- | --- | --- | --- | --- | --- |
| B1 | binds | binds | binds | no binding | binds | binds | binds | binds | binds | binds | binds | binds | binds | no binding (tested: ~20 µg of purified GST-CCPG on beads) |  |  |
| B2 |  |  |  |  |  |  |  |  |  |  |  |  |  |  | binds | binds |
